The values below come from the supplement of paper PMC3353916.

The subject of the data set is Sindbis virus TE/5'2J-GFP. Description: percent infected (GFP+ in RFP+ ISG-expressing cells); higher = more infection (less antiviral activity). Particulars: experiment: primary screen (single well).

Single values of this set are uncertain.

For “MYFCWGADSRELQRRRTAGSPGAELLQAASGERHSLLLLTNHRVLSCGDNSRGQLGRRGAQRGELPEPIQALETLIVDLVSCGKEHSLAVCHKGRVFAWGAGSEGQLGIGEFKEISFTPKKIMTLNDIKIIQVSCGHYHSLALSKDSQVFSWGKNSHGQLGLGKEFPSQASPQRVRSLEGIPLAQVAAGGAHSFALSLCGTSFGWGSNSAGQLALSGRNVPVQSNKPLSVGALKNLGVVYISCGDAHTAVLTQDGKVFTFGDNRSGQLGYSPTPEKRGPQLVERIDGLVSQIDCGSYHTLAYVHTTGQVVSFGHGPSDTSKPTHPEALTENFDISCLISAEDFVDVQVKHIFAGTYANFVTTHQDTSSTRAPGKTLPEISRISQSMAEKWIAVKRRSTEHEMAKSEIRMIFSSPACLTASFLKKRGTGETTSIDVDLEMARDTFKKLTKKEWISSMITTCLEDDLLRALPCHSPHQEALSVFLLLPECPVMHDSKNWKNLVVPFAKAVCEMSKQSLQVLKKCWAFLQESSLNPLIQMLKAAIISQLLHQTKTEQDHCNVKALLGMMKELHKVNKANCRLPENTFNINELSNLLNFYIDRGRQLFRDNHLIPAETPSPVIFSDFPFIFNSLSKIKLLQADSHIKMQMSEKKAYMLMHETILQKKDEFPPSPRFILRVRRSRLVKDALRQLSQAEATDFCKVLVVEFINEICPESGGVSSEFFHCMFEEMTKPEYGMFMYPEMGSCMWFPAKPKPEKKRYFLFGMLCGLSLFNLNVANLPFPLALYKKLLDQKPSLEDLKELSPRLGKSLQEVLDDAADDIGDALCIRFSIHWDQNDVDLIPNGISIPVDQTNKRDYVSKYIDYIFNVSVKAVYEEFQRGFYRVCEKEILRHFYPEELMTAIIGNTDYDWKQFEQNSKYEQGYQKSHPTIQLFWKAFHKLTLDEKKKFLFFLTGRDRLHARGIQKMEIVFRCPETFSERDHPTSITCHNILSLPKYSTMERMEEALQVAINNNRGFVSPMLTQS [HERC6]”, the percent infected runs as follows: (BHK/HA-Zeo (control)) 99%; (BHK/NZAP-Zeo (ZAP)) 96.7%.
In the same order, the values of “MVVDFWTWEQTFQELIQEAKPRATWTLKLDGNLQLDCLAQGWKQYQQRAFGWFRCSSCQRSWASAQVQILCHTYWEHWTSQGQVRMRLFGQRCQKCSWSQYEMPEFSSDSTMRILSNLVQHILKKYYGNGTRKSPEMPVILEVSLEGSHDTANCEACTLGICGQGLKSCMTKPSKSLLPHLKTGNSSPGIGAVYLANQAKNQSAEAKEAKGSGYEKLGPSRDPDPLNICVFILLLVFIVVKCFTSE [RTP4]” are 98.3% and 95.6%.
Consider “MSLVLLSLAALCRSAVPREPTVQCGSETGPSPEWMLQHDLIPGDLRDLRVEPVTTSVATGDYSILMNVSWVLRADASIRLLKATKICVTGKSNFQSYSCVRCNYTEAFQTQTRPSGGKWTFSYIGFPVELNTVYFIGAHNIPNANMNEDGPSMSVNFTSPGCLDHIMKYKKKCVKAGSLWDPNITACKKNEETVEVNFTTTPLGNRYMALIQHSTIIGFSQVFEPHQKKQTRASVVIPVTGDSEGATVQLTPYFPTCGSDCIRHKGTVVLCPQTGVPFPLDNNKSKPGGWLPLLLLSLLVATWVLVAGIYLMWRHERIKKTSFSTTTLLPPIKVLVVYPSEICFHHTICYFTEFLQNHCRSEVILEKWQKKKIAEMGPVQWLATQKKAADKVVFLLSNDVNSVCDGTCGKSEGSPSENSQDLFPLAFNLFCSDLRSQIHLHKYVVVYFREIDTKDDYNALSVCPKYHLMKDATAFCAELLHVKQQVSAGKRSQACHDGCCSL [IL17RB]”, for which the percent infected reads like this: (BHK/HA-Zeo (control)) 97.9%; (BHK/NZAP-Zeo (ZAP)) 95.4%.
With “MKLLTGLVFCSLVLGVSSRSFFSFLGEAFDGARDMWRAYSDMREANYIGSDKYFHARGNYDAAKRGPGGAWAAEVITDARENIQRFFGHGAEDSLADQAANEWGRSGKDPNHFRPAGLPEKY [SAA1]”, the percent infected came out at 92.2% (BHK/HA-Zeo (control)) and 87.3% (BHK/NZAP-Zeo (ZAP)).
For the sequence “MVAKDYPFYLTVKRANCSLELPPASGPAKDAEEPSNKRVKPLSRVTSLANLIPPVKATPLKRFSQTLQRSISFRSESRPDILAPRPWSRNAAPSSTKRRDSKLWSETFDVCVNQMLTSKEIKRQEAIFELSQGEEDLIEDLKLAKKAYHDPMLKLSIMTEQELNQIFGTLDSLIPLHEELLSQLRDVRKPDGSTEHVGPILVGWLPCLSSYDSYCSNQVAAKALLDHKKQDHRVQDFLQRCLESPFSRKLDLWNFLDIPRSRLVKYPLLLREILRHTPNDNPDQQHLEEAINIIQGIVAEINTKTGESECRYYKERLLYLEEGQKDSLIDSSRVLCCHGELKNNRGVKLHVFLFQEVLVITRAVTHNEQLCYQLYRQPIPVKDLLLEDLQDGEVRLGGSLRGAFSNNERIKNFFRVSFKNGSQSQTHSLQANDTFNKQQWLNCIRQAKETVLCAAGQAGVLDSEGSFLNPTTGSRELQGETKLEQMDQSDSESDCSMDTSEVSLDCERMEQTDSSCGNSRHGESNV [ARHGEF3]”, the percent infected runs as follows: (BHK/HA-Zeo (control)) 98.4%; (BHK/NZAP-Zeo (ZAP)) 93.5%.
In the same order, the values of “MGDTFIRHIALLGFEKRFVPSQHYVYMFLVKWQDLSEKVVYRRFTEIYEFHKTLKEMFPIEAGAINPENRIIPHLPAPKWFDGQRAAENRQGTLTEYCSTLMSLPTKISRCPHLLDFFKVRPDDLKLPTDNQTKKPETYLMPKDGKSTATDITGPIILQTYRAIANYEKTSGSEMALSTGDVVEVVEKSESGWWFCQMKAKRGWIPASFLEPLDSPDETEDPEPNYAGEPYVAIKAYTAVEGDEVSLLEGEAVEVIHKLLDGWWVIRKDDVTGYFPSMYLQKSGQDVSQAQRQIKRGAPPRRSSIRNAHSIHQRSRKRLSQDAYRRNSVRFLQQRRRQARPGPQSPGSPLEEERQTQRSKPQPAVPPRPSADLILNRCSESTKRKLASAV [NCF1]” are 98.2% and 95.2%.
Turning to “MAACRYCCSCLRLRPLSDGPFLLPRRDRALTQLQVRALWSSAGSRAVAVDLGNRKLEISSGKLARFADGSAVVQSGDTAVMVTAVSKTKPSPSQFMPLVVDYRQKAAAAGRIPTNYLRREIGTSDKEILTSRIIDRSIRPLFPAGYFYDTQVLCNLLAVDGVNEPDVLAINGASVALSLSDIPWNGPVGAVRIGIIDGEYVVNPTRKEMSSSTLNLVVAGAPKSQIVMLEASAENILQQDFCHAIKVGVKYTQQIIQGIQQLVKETGVTKRTPQKLFTPSPEIVKYTHKLAMERLYAVFTDYEHDKVSRDEAVNKIRLDTEEQLKEKFPEADPYEIIESFNVVAKEVFRSIVLNEYKRCDGRDLTSLRNVSCEVDMFKTLHGSALFQRGQTQVLCTVTFDSLESGIKSDQVITAINGIKDKNFMLHYEFPPYATNEIGKVTGLNRRELGHGALAEKALYPVIPRDFPFTIRVTSEVLESNGSSSMASACGGSLALMDSGVPISSAVAGVAIGLVTKTDPEKGEIEDYRLLTDILGIEDYNGDMDFKIAGTNKGITALQADIKLPGIPIKIVMEAIQQASVAKKEILQIMNKTISKPRASRKENGPVVETVQVPLSKRAKFVGPGGYNLKKLQAETGVTISQVDEETFSVFAPTPSAMHEARDFITEICKDDQEQQLEFGAVYTATITEIRDTGVMVKLYPNMTAVLLHNTQLDQRKIKHPTALGLEVGQEIQVKYFGRDPADGRMRLSRKVLQSPATTVVRTLNDRSSIVMGEPISQSSSNSQ [PNPT1]”, the percent infected was found to be 97.7% (BHK/HA-Zeo (control)) and 94.7% (BHK/NZAP-Zeo (ZAP)).
As to “MRSARSTALNRGEQRAVRYYSHMKLNMAEEEDYMSDSFINVQEDIRPGLPMLRQIREARRKEEKQQEANLKNRQKSLKEEEQERRDIGLKNALGCENKGFALLQKMGYKSGQALGKSGGGIVEPIPLNIKTGKSGIGHEASLKRKAEEKLESYRKKIHMKNQAEEKAAEQFRMRLKNKQDEMKLEGDLRRSQRACQQLDVQKNIQVPREAWYWLRLEEETEEDEEEKEQDEDEYKSEDLSVLEKLQILTSYLREEHLYCIWCGTAYEDKEDLSSNCPGPTSADHD [CCDC75]”, the percent infected is, setting by setting: (BHK/HA-Zeo (control)) 95.3%; (BHK/NZAP-Zeo (ZAP)) 84.2%.
For the sequence “MEADKDDTQQILKEHSPDEFIKDEQNKGLIDEITKKNIQLKKEIQKLETELQEATKEFQIKEDIPETKMKFLSVETPENDSQLSNISCSFQVSSKVPYEIQKGQALITFEKEEVAQNVVSMSKHHVQIKDVNLEVTAKPVPLNSGVRFQVYVEVSKMKINVTEIPDTLREDQMRDKLELSFSKSRNGGGEVDRVDYDRQSGSAVITFVEIGVADKILKKKEYPLYINQTCHRVTVSPYTEIHLKKYQIFSGTSKRTVLLTGMEGIQMDEEIVEDLINIHFQRAKNGGGEVDVVKCSLGQPHIAYFEE [NMI]”, the percent infected amounted to 97.9% (BHK/HA-Zeo (control)) and 94.9% (BHK/NZAP-Zeo (ZAP)).
In turn, “MLPRVGCPALPLPPPPLLPLLLLLLGASGGGGGARAEVLFRCPPCTPERLAACGPPPVAPPAAVAAVAGGARMPCAELVREPGCGCCSVCARLEGEACGVYTPRCGQGLRCYPHPGSELPLQALVMGEGTCEKRRDAEYGASPEQVADNGDDHSEGGLVENHVDSTMNMLGGGGSAGRKPLKSGMKELAVFREKVTEQHRQMGKGGKHHLGLEEPKKLRPPPARTPCQQELDQVLERISTMRLPDERGPLEHLYSLHIPNCDKHGLYNLKQCKMSLNGQRGECWCVNPNTGKLIQGAPTIRGDPECHLFYNEQQEARGVHTQRMQ [IGFBP2]” showed a percent infected (BHK/HA-Zeo (control)) of 95.3%.
Take “MAADTPGKPSASPMAGAPASASRTPDKPRSAAEHRKSSKPVMEKRRRARINESLAQLKTLILDALRKESSRHSKLEKADILEMTVRHLRSLRRVQVTAALSADPAVLGKYRAGFHECLAEVNRFLAGCEGVPADVRSRLLGHLAACLRQLGPSRRPASLSPAAPAEAPAPEVYAGRPLLPSLGGPFPLLAPPLLPGLTRALPAAPRAGPQGPGGPWRPWLR [HES4]”: the percent infected is, setting by setting: (BHK/HA-Zeo (control)) 98.2%; (BHK/NZAP-Zeo (ZAP)) 96.6%.
With “MASVAVDPQPSVVTRVVNLPLVSSTYDLMSSAYLSTKDQYPYLKSVCEMAENGVKTITSVAMTSALPIIQKLEPQIAVANTYACKGLDRIEERLPILNQPSTQIVANAKGAVTGAKDAVTTTVTGAKDSVASTITGVMDKTKGAVTGSVEKTKSVVSGSINTVLGSRMMQLVSSGVENALTKSELLVEQYLPLTEEELEKEAKKVEGFDLVQKPSYYVRLGSLSTKLHSRAYQQALSRVKEAKQKSQQTISQLHSTVHLIEFARKNVYSANQKIQDAQDKLYLSWVEWKRSIGYDDTDESHCAEHIESRTLAIARNLTQQLQTTCHTLLSNIQGVPQNIQDQAKHMGVMAGDIYSVFRNAASFKEVSDSLLTSSKGQLQKMKESLDDVMDYLVNNTPLNWLVGPFYPQLTESQNAQDQGAEMDKSSQETQRSEHKTH [ADFP]”, the percent infected runs as follows: (BHK/HA-Zeo (control)) 95.7%; (BHK/NZAP-Zeo (ZAP)) 82%.
For “MALMQELYSTPASRLDSFVAQWLQPHREWKEEVLDAVRTVEEFLRQEHFQGKRGLDQDVRVLKVVKVGSFGNGTVLRSTREVELVAFLSCFHSFQEAAKHHKDVLRLIWKTMWQSQDLLDLGLEDLRMEQRVPDALVFTIQTRGTAEPITVTIVPAYRALGPSLPNSQPPPEVYVSLIKACGGPGNFCPSFSELQRNFVKHRPTKLKSLLRLVKHWYQQYVKARSPRANLPPLYALELLTIYAWEMGTEEDENFMLDEGFTTVMDLLLEYEVICIYWTKYYTLHNAIIEDCVRKQLKKERPIILDPADPTLNVAEGYRWDIVAQRASQCLKQDCCYDNRENPISSWNVKRARDIHLTVEQRGYPDFNLIVNPYEPIRKVKEKIRRTRGYSGLQRLSFQVPGSERQLLSSRCSLAKYGIFSHTHIYLLETIPSEIQVFVKNPDGGSYAYAINPNSFILGLKQQIEDQQGLPKKQQQLEFQGQVLQDWLGLGIYGIQDSDTLILSKKKGEALFPAS [OASL]” the same measures were 97.3% and 92.8%.
